Reference: PubChem BioAssay AID328 (DTP/NCI, 2004)
The list shows only some results of the screen, not a fair sample: it is rich in T/C values a quarter to a half above the control, in often repeated tests (any T/C) and in doses without a T/C. Further doses and runs are listed elsewhere. T/C is the treated group as % of the vehicle group. Some doses have a count of surviving animals in place of a T/C: the source files T/C as zero there, which appears to mark a toxic dose or a test without result, not a measured value. Some doses without a T/C left all or most animals alive at the check, yet need not have been tolerated: the source hardly ever lists a survival T/C far under the control, and the zero likely stands for such cases as well. Counts of survivors are from the toxicity check (mostly the fifth day) where no day follows; animals may have died later. Schedules are NCI's codes, taken here to give the interval after Q, in days (D) or hours (H), and the number of doses after X. Some entries were tested several times; the values are given in rising order. For survival time, the PubChem record calls one and a half times the control and up active, and a quarter to a half above the control has no call in these data; cut-offs in other NCI protocols can differ.

Test system: BDF1 mice, P388 leukemia ip, median survival T/C
Test: NCI In Vivo Anticancer Drug Screen. Data for tumor model P388 Leukemia (intraperitoneal) in B6D2F1 (BDF1) mice
Conditions: T/C endpoint: median survival time, higher T/C = longer survival
Procedure, shortened: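 Each value expresses how treatment altered survival: treated-mouse outcome over vehicle-mouse outcome, both groups bearing the transplanted tumour.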

[1] = dose: 100.0 mg/kg/injection, schedule: Q01DX009 (ip), vehicle: saline with Tween-80
[2] = dose: 200.0 mg/kg/injection, schedule: Q01DX009 (ip), vehicle: saline with Tween-80
[3] = dose: 200.0 mg/kg/injection, schedule: Q04DX003 (ip), vehicle: saline
[4] = dose: 400.0 mg/kg/injection, schedule: Q01DX009 (ip), vehicle: saline with Tween-80
[5] = dose: 200.0 mg/kg/injection, schedule: Q04DX003 (ip), vehicle: saline with Tween-80
[6] = dose: 400.0 mg/kg/injection, schedule: Q04DX003 (ip), vehicle: saline with Tween-80
[7] = dose: 400.0 mg/kg/injection, schedule: Q04DX003 (ip), vehicle: saline
[8] = dose: 3.12 mg/kg/injection, schedule: Q01DX009 (ip), vehicle: saline
[9] = dose: 4.68 mg/kg/injection, schedule: Q01DX009 (ip), vehicle: saline

With C=C1C(=O)OCC2C(C(=O)O)=CC3C(C)C(C)=CC123 (stereo not drawn) the T/C (dose: 5.0 mg/kg/injection, schedule: Q01DX009 (ip), vehicle: other) was 128 % of control, the T/C (dose: 10.0 mg/kg/injection, schedule: Q01DX009 (ip), vehicle: other) was 144 % of control and the T/C (dose: 20.0 mg/kg/injection, schedule: Q01DX009 (ip), vehicle: other) was 144 % of control. The T/C (dose: 40.0 mg/kg/injection, schedule: Q01DX009 (ip), vehicle: Klucel (hydroxypropylcellulose) (HPC)) was 127 % of control, the survivor count (dose: 40.0 mg/kg/injection, schedule: Q01DX009 (ip), vehicle: other) was 4 of 6 and the survivor count (dose: 80.0 mg/kg/injection, schedule: Q01DX009 (ip), vehicle: Klucel (hydroxypropylcellulose) (HPC)) was 3 of 3. For the same molecule, the T/C (dose: 80.0 mg/kg/injection, schedule: Q04DX003 (ip), vehicle: other) was 133 % of control.

For O=C(NNc1ccccc1)C(F)(F)F, the survivor count (dose: 75.0 mg/kg/injection, schedule: Q01DX009 (ip), vehicle: saline with Tween-80) was 2 of 6, the survivor count (dose: 115.0 mg/kg/injection, schedule: Q01DX009 (ip), vehicle: saline with Tween-80) was 0 of 6 and the survivor count (dose: 150.0 mg/kg/injection, schedule: Q04DX003 (ip), vehicle: saline with Tween-80) was 6 of 6. For the same molecule, the survivor count (dose: 225.0 mg/kg/injection, schedule: Q01DX001 (ip), vehicle: saline with Tween-80) was 2 of 6.

Nc1ccc(/C=C\c2nccc3ccccc23)cc1 was tested, and the T/C (dose: 1.56 mg/kg/injection, schedule: Q01DX009 (ip), vehicle: saline with Tween-80) was 125 % of control, the survivor count (dose: 12.5 mg/kg/injection, schedule: Q01DX009 (ip), vehicle: saline with Tween-80) was 6 of 6 and the survivor count (dose: 25.0 mg/kg/injection, schedule: Q01DX009 (ip), vehicle: saline with Tween-80) was 3 of 6. For the same molecule, the survivor count (dose: 50.0 mg/kg/injection, schedule: Q01DX009 (ip), vehicle: saline with Tween-80) was 0 of 6 and 3 of 6, the survivor count [1] was 0 of 6 and the survivor count [2] was 0 of 6.

With Fc1c(Cl)c(Cl)c(Cl)c(Cl)c1Cl the T/C [1] was 130 % of control.

For S=C(NNc1ccccc1)Nc1ccccc1, the survivor count (dose: 200.0 mg/kg/injection, schedule: Q01DX009 (ip), vehicle: Klucel (hydroxypropylcellulose) (HPC)) was 6 of 6.

For CC[n+]1ccc(Nc2ccc(NC(=O)c3ccc(C(=O)Nc4ccc(Nc5cc[n+](CC)c(N)n5)cc4)cc3)cc2)nc1N, the T/C (dose: 0.03 mg/kg/injection, schedule: Q01DX009 (ip), vehicle: saline) was 127 % of control, the T/C (dose: 0.06 mg/kg/injection, schedule: Q01DX009 (ip), vehicle: saline) was 131 % of control and the T/C (dose: 1.1 mg/kg/injection, schedule: Q01DX009 (ip), vehicle: saline) was 140 % of control. For the same molecule, the T/C (dose: 2.0 mg/kg/injection, schedule: Q04DX003 (ip), vehicle: saline) was 145 % of control, the T/C (dose: 2.5 mg/kg/injection, schedule: Q01DX009 (ip), vehicle: saline) was 134 % of control and the T/C (dose: 15.0 mg/kg/injection, schedule: Q04DX003 (ip), vehicle: saline) was 140 % of control. The T/C (dose: 40.0 mg/kg/injection, schedule: Q01DX009 (ip), vehicle: saline) was 140 % of control and the survivor count [3] was 5 of 6.

O=C(O)/C(=C/c1ccc(Cl)cc1)c1ccccc1 was tested, and the survivor count [4] was 3 of 6.

In the case of COc1cc([C@@H]2c3cc4c(cc3C(Br)[C@H]3COC(=O)[C@H]23)OCO4)cc(OC)c1OC (stereo partly drawn), the survivor count (dose: 60.0 mg/kg/injection, schedule: Q01DX009 (ip), vehicle: Klucel (hydroxypropylcellulose) (HPC)) is reported as 8 of 10.

In the case of CC(C)c1ccc([C](C)(CC(C)(C)C)[Sn]([CH3])([CH3])[CH3])cc1 (stereo not drawn), the survivor count (dose: 100.0 mg/kg/injection, schedule: Q04DX003 (ip), vehicle: Klucel (hydroxypropylcellulose) (HPC)) is reported as 0 of 6, the survivor count (dose: 200.0 mg/kg/injection, schedule: Q04DX003 (ip), vehicle: Klucel (hydroxypropylcellulose) (HPC)) is reported as 0 of 6 and the survivor count (dose: 400.0 mg/kg/injection, schedule: Q04DX003 (ip), vehicle: Klucel (hydroxypropylcellulose) (HPC)) is reported as 0 of 6.

For CCN=C1N[N+]2=CCCCC2S1 (stereo not drawn), the T/C (dose: 70.0 mg/kg/injection, schedule: Q01DX009 (ip), vehicle: saline) was 133 % of control.

For CC(=O)CC(C)=O.CC(=O)CC(C)=O.O.O.[Ni], the T/C (dose: 50.0 mg/kg/injection, schedule: Q04DX003 (ip), vehicle: saline) was 126 % of control, the survivor count (dose: 100.0 mg/kg/injection, schedule: Q04DX003 (ip), vehicle: saline with Tween-80) was 0 of 6 and the survivor count [5] was 0 of 6. For the same molecule, the survivor count [6] was 0 of 6.

ClCCn1cnc2c(SCc3ccccc3Cl)ncnc21 was tested, and the survivor count [5] was 6 of 6.

With Cc1ccc(S(=O)(=O)N(C)SCl)cc1 (tested in a mixture with another compound) the T/C (dose: 50.0 mg/kg/injection, schedule: Q01DX009 (ip), vehicle: other) was 125 % of control and the T/C (dose: 200.0 mg/kg/injection, schedule: Q01DX009 (ip), vehicle: other) was 131 % of control.

In the case of CCN(CC)CCOC(=O)c1ccc(NC(=O)Nc2ccc(C(=O)OCCN(CC)CC)cc2)cc1, the survivor count [2] is reported as 0 of 6 and the survivor count [4] is reported as 0 of 6.

In the case of Nc1ccc(CCCCc2ccc(Cl)cc2Cl)cc1, the survivor count (dose: 225.0 mg/kg/injection, schedule: Q01DX009 (ip), vehicle: saline) is reported as 2 of 6, the survivor count (dose: 335.0 mg/kg/injection, schedule: Q01DX009 (ip), vehicle: saline) is reported as 0 of 6 and the survivor count [7] is reported as 6 of 6.

In the case of Cc1cccc(C)c1N=CNc1c(C)cccc1C.[Cu+2], the survivor count [1] is reported as 1 of 6.

For CC(=O)N(C)C(C(=O)N1CC(C)CC1C(=O)N(C)C1C(=O)NC(CC(C)C)C(=O)N2CC(C)CC2C(=O)NC(CC(C)C)C(=O)N(C)C(C(C)C)C(=O)N2CCCC2C(=O)N(C)C(CC(C)C)C(=O)NCC(=O)OC1C)C(C)C (stereo not drawn), the T/C (dose: 18.75 mg/kg/injection, schedule: Q01DX009 (ip), vehicle: Klucel (hydroxypropylcellulose) (HPC)) was 127 % of control.

Cc1[nH]c(=O)[nH]c(=O)c1NCCO was tested, and the survivor count (dose: 100.0 mg/kg/injection, schedule: Q01DX009 (ip), vehicle: water) was 6 of 6, the survivor count (dose: 200.0 mg/kg/injection, schedule: Q01DX009 (ip), vehicle: water) was 6 of 6 and the survivor count (dose: 400.0 mg/kg/injection, schedule: Q01DX009 (ip), vehicle: water) was 6 of 6.

With C=CC[N+](CC)(CC)Cc1ccc(C[N+](CC)(CC)CC=C)cc1 the survivor count (dose: 100.0 mg/kg/injection, schedule: Q04DX003 (ip), vehicle: saline) was 0 of 6, the survivor count [3] was 0 of 6 and the survivor count [7] was 0 of 6.

Cc1cc(N(CCCl)CCCl)ccc1C=Nc1cccc(Cl)c1 was tested, and the survivor count [6] was 6 of 6.

CC1OC(OC2CC(O)C3(CO)C4C(O)CC5(C)C(C6=CC(=O)OC6)CCC5(O)C4CCC3(O)C2)C(O)C(O)C1O (stereo not drawn) was tested, and the survivor count (dose: 6.0 mg/kg/injection, schedule: Q01DX010 (ip), vehicle: saline) was 3 of 6.

Cc1ccc(S(=O)(=O)Nc2ccccc2)c(CC(O)(c2ccccc2)c2ccccc2)c1 was tested, and the survivor count [2] was 4 of 6.

For c1cc[c]([Pb]([c]2ccccc2)([c]2ccccc2)[n]2ccc3ccccc32)cc1, the T/C (dose: 1.56 mg/kg/injection, schedule: Q01DX009 (ip), vehicle: saline) was 133 % of control, the survivor count (dose: 2.05 mg/kg/injection, schedule: Q01DX009 (ip), vehicle: saline) was 3 of 6 and the survivor count (dose: 3.12 mg/kg/injection, schedule: Q01DX009 (ip), vehicle: other) was 5 of 6. For the same molecule, the T/C [8] was 133 and 135 % of control, the survivor count [8] was 0 of 6 and the survivor count (dose: 4.68 mg/kg/injection, schedule: Q01DX009 (ip), vehicle: other) was 5 of 6. The T/C [9] was 130 % of control, the survivor count [9] was 3 of 6 and the survivor count (dose: 6.6 mg/kg/injection, schedule: Q01DX009 (ip), vehicle: saline) was 6 of 6. For the same molecule, the survivor count (dose: 10.0 mg/kg/injection, schedule: Q01DX009 (ip), vehicle: saline) was 2 of 6 and the survivor count (dose: 15.0 mg/kg/injection, schedule: Q01DX009 (ip), vehicle: saline) was 0 of 6.

CCOC(=O)/C=C(\C)SC1=CC(=O)C=CC1=O was tested, and the survivor count (dose: 400.0 mg/kg/injection, schedule: Q01DX001 (ip), vehicle: saline with Tween-80) was 3 of 6.
